For test [1], the target named is 2xmut hQPCT (Y115E-Y117E), Ala33-Leu361, His6-tagged (human) (UniProt Q16769). Description: SEC; HiLoad 16/60 Superdex 75 column after Ni-affinity; 150 mM NaCl, 50 mM Tris, pH 8; both purified.
The target of test [2] is 6xmut hQPCT (Y115E-Y117E-S119A-S121A-W149D-N150P), Ala33-Leu361, His6-tagged (human) (UniProt Q16769). The test is described as above.

Results are given in words; binding and its absence hold for the method and conditions named. Where a sequence is shown, tags or fusion partners need not be part of it.

Consider 2 molecules from PMC3744504.

B1: 2xmut hQPCT (Y115E-Y117E), Ala33-Leu361, His6-tagged (enzyme, UniProt Q16769 33-361)
chain: ASAWPEEKNYHQPAILNSSALRQIAEGTSISEMWQNDLQPLLIERYPGSPGSYAARQHIMQRIQRLQADWVLEIDTFLSQTPEGERSFSNIISTLNPTAKRHLVLACHYDSKYFSHWNNRVFVGATDSAVPCAMMLELARALDKKLLSLKTVSDSKPDLSLQLIFFDGEEAFLHWSPQDSLYGSRHLAAKMASTPHPPGARGTSQLHGMDLLVLLDLIGAPNPTFPNFFPNSARWFERLQAIEHELHELGLLKDHSLEGRYFQNYSYGGVIQDDHIPFLRRGVPVLHLIPSPFPEVWHTMDDNEENLDESTIDNLNKILQVFVLEYLHL
Take B1: in test [1], the binding result is reported as “no binding”.

B2: 6xmut hQPCT (Y115E-Y117E-S119A-S121A-W149D-N150P), Ala33-Leu361, His6-tagged (enzyme, UniProt Q16769 33-361)
chain: ASAWPEEKNYHQPAILNSSALRQIAEGTSISEMWQNDLQPLLIERYPGSPGSYAARQHIMQRIQRLQADWVLEIDTFLSQTPEGERAFANIISTLNPTAKRHLVLACHYDSKYFSHDPNRVFVGATDSAVPCAMMLELARALDKKLLSLKTVSDSKPDLSLQLIFFDGEEAFLHWSPQDSLYGSRHLAAKMASTPHPPGARGTSQLHGMDLLVLLDLIGAPNPTFPNFFPNSARWFERLQAIEHELHELGLLKDHSLEGRYFQNYSYGGVIQDDHIPFLRRGVPVLHLIPSPFPEVWHTMDDNEENLDESTIDNLNKILQVFVLEYLHL
For B2, in test [2], the binding entry is “no binding”.
